The list shows a part of the results.
How the values were obtained:
Assay in all cases: log2 fold change, soluble protein after heating vs DMSO (PISA); higher = thermal stabilisation; K562 cells, 10 uM, 30 min; active = over 0.2 and 3.5 SD of the protein, either way, in both replicates (recomputed)
bafetinib = compound: Cc1ccc(NC(=O)c2ccc(CN3CC[C@H](N(C)C)C3)c(C(F)(F)F)c2)cc1Nc1nccc(-c2cncnc2)n1 [bafetinib]
Procedure, shortened: (§1)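 K562 cells (2×10^6 cells/mL) were treated with 10 μM compound for 30 min, and aliquots were heated for 3 min over 48°C-58°C. Pooled aliquots were extracted in PBS with 0.5% NP-40 at 4°C, and the supernatant after 21,000xg for 90 min was measured by TMTpro 16plex LC-MS/MS with channel sums equalised. Reported thermal stability, relative to control samples and from duplicates, is a log2 fold change.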

Sequences of proteins named here, by UniProt entry; tags and fusion partners are left off. A change or cut given only in a name is not applied to a line headed by its entry.
UniProt P0CAP2, whole entry, looked up: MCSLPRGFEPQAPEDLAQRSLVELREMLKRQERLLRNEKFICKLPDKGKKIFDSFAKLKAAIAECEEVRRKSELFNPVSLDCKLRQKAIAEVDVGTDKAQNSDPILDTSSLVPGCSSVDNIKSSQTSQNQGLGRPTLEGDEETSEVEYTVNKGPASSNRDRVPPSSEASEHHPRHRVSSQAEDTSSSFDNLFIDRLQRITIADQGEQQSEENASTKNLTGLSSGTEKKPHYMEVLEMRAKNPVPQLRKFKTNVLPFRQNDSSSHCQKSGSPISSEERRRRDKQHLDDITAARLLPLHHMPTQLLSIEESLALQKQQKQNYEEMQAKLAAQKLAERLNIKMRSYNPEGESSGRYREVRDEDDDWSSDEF
UniProt Q15063: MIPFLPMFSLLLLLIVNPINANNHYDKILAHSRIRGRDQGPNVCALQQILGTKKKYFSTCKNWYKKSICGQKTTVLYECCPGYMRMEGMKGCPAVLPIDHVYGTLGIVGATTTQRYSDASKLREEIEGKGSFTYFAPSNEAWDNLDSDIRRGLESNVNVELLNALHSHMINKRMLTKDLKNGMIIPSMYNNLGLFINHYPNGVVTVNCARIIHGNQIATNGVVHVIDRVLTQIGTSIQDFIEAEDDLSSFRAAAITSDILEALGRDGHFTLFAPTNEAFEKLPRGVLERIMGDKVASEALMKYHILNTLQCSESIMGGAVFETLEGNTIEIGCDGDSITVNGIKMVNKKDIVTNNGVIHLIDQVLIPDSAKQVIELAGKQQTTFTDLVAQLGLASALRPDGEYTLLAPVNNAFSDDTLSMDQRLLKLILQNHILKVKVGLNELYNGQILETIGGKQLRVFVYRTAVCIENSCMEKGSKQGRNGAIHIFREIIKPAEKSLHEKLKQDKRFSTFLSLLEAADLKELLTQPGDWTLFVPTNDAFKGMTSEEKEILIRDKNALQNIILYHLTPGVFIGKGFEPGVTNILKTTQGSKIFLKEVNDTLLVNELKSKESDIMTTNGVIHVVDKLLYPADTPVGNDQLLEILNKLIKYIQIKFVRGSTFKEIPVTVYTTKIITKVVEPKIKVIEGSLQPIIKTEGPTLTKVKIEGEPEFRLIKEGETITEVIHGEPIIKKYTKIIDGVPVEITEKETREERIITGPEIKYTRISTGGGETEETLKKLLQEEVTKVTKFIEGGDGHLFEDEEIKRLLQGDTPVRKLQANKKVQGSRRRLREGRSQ
UniProt Q13794: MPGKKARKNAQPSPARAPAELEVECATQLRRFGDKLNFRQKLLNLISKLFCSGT
UniProt Q13356: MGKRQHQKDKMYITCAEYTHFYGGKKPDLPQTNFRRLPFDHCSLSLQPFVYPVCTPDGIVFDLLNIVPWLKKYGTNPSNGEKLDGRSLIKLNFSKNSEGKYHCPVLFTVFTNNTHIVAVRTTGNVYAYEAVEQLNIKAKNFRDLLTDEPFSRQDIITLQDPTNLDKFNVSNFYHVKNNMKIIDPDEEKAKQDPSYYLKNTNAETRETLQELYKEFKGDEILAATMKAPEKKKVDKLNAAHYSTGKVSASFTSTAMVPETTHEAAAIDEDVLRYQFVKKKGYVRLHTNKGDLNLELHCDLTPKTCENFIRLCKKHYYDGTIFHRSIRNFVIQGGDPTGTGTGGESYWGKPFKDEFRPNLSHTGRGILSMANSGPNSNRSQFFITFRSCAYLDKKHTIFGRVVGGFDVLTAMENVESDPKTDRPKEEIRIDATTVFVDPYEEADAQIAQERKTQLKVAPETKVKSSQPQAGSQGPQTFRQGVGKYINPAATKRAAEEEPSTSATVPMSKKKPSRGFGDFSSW
UniProt Q9Y3C6: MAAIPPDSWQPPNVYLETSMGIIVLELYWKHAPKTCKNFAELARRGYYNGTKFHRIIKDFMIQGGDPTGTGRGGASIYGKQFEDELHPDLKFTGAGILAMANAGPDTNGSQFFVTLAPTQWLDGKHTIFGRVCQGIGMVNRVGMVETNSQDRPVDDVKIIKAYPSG
UniProt Q9H8W4: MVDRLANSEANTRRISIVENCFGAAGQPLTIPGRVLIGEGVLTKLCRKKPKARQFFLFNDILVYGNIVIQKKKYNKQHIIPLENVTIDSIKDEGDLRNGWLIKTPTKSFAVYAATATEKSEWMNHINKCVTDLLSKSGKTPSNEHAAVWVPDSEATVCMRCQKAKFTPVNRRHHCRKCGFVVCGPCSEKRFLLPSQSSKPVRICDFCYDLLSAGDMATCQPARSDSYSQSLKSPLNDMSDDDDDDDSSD
UniProt Q8WZA1: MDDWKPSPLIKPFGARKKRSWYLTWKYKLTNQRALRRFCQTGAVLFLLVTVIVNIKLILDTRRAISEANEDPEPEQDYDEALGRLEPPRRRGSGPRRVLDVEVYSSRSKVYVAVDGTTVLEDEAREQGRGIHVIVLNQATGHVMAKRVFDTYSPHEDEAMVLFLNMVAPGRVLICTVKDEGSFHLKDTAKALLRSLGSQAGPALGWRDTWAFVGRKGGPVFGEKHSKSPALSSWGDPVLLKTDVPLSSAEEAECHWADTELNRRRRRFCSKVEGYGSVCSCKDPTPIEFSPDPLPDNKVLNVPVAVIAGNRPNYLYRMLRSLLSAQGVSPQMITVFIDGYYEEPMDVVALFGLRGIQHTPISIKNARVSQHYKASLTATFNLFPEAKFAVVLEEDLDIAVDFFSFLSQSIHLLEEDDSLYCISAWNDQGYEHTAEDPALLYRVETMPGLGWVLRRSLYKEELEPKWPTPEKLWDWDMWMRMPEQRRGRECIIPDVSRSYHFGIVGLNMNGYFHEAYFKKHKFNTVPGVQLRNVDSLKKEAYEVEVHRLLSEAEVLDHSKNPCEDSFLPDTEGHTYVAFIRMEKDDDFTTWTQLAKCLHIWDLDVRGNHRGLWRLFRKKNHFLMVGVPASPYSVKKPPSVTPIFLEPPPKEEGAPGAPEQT
UniProt P13797: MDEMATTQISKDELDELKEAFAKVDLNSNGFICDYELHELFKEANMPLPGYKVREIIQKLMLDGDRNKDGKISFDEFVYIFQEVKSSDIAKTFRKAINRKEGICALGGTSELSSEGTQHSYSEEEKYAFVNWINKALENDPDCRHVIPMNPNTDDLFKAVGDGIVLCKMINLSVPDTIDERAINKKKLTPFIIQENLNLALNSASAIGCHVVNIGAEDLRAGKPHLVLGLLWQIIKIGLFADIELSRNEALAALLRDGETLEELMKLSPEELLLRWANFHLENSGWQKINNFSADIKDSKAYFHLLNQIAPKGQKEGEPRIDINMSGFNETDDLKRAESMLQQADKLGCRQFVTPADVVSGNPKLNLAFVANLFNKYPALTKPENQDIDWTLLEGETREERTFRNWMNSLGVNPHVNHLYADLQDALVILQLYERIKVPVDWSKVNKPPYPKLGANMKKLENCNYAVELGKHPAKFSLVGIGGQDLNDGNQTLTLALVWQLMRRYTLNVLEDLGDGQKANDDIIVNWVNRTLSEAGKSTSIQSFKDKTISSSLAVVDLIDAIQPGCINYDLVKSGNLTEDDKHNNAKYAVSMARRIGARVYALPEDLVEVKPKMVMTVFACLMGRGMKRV
UniProt A5A3E0, whole entry, looked up: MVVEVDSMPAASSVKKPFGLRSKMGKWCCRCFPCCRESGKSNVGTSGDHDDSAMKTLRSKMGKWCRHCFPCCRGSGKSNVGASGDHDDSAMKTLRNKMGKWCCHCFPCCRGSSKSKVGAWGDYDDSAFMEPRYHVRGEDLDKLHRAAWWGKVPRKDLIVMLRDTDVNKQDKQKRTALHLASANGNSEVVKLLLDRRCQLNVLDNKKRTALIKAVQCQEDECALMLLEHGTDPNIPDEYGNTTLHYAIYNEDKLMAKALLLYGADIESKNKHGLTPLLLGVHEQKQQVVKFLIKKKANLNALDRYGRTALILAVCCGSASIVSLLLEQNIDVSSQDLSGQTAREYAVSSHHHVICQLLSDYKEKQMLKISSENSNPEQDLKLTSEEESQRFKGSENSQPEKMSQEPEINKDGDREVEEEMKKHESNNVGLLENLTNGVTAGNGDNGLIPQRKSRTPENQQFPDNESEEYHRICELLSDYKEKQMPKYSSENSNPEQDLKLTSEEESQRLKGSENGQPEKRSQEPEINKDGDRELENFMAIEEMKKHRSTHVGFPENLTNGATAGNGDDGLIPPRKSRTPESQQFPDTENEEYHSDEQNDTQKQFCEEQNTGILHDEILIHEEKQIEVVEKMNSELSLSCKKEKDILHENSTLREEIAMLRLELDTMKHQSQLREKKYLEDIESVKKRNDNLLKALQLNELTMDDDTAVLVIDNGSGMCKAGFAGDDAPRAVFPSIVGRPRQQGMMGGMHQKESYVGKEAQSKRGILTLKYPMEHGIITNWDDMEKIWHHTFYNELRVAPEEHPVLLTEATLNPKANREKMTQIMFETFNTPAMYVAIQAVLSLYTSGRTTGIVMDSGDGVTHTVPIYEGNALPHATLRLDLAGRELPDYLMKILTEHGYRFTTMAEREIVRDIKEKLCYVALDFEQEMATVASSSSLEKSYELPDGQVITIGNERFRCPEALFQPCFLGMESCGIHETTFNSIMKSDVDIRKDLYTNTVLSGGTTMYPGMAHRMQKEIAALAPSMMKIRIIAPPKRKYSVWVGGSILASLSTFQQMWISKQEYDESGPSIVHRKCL
UniProt Q8N490: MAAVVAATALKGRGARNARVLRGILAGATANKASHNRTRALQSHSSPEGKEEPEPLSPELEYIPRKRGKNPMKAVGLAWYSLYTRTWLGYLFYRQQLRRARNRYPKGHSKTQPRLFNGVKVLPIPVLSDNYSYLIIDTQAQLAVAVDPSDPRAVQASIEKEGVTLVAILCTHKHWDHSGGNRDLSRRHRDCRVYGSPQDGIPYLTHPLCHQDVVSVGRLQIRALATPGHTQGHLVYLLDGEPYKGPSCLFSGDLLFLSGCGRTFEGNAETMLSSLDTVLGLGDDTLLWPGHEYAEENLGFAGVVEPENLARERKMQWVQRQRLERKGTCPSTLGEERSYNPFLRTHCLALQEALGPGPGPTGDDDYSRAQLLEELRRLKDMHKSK
UniProt P30405: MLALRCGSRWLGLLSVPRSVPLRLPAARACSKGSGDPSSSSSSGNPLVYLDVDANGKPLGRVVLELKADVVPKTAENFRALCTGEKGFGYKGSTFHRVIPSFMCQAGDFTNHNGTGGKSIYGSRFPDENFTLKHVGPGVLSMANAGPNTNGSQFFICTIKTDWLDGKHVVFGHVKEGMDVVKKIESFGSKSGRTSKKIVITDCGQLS
UniProt Q06203, whole entry, looked up: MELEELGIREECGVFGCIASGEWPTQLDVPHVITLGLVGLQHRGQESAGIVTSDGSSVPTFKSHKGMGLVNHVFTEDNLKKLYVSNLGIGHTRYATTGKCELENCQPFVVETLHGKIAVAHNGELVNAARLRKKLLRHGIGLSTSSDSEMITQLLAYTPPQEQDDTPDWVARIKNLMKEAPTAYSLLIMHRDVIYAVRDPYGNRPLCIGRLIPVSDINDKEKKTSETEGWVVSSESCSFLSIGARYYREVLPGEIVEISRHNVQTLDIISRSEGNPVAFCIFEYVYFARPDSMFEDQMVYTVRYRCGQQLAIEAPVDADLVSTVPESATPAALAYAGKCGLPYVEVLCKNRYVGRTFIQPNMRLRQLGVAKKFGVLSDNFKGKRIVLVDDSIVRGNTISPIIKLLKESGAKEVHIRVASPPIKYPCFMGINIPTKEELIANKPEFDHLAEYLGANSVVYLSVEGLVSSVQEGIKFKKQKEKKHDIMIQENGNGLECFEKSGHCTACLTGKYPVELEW
UniProt O60568: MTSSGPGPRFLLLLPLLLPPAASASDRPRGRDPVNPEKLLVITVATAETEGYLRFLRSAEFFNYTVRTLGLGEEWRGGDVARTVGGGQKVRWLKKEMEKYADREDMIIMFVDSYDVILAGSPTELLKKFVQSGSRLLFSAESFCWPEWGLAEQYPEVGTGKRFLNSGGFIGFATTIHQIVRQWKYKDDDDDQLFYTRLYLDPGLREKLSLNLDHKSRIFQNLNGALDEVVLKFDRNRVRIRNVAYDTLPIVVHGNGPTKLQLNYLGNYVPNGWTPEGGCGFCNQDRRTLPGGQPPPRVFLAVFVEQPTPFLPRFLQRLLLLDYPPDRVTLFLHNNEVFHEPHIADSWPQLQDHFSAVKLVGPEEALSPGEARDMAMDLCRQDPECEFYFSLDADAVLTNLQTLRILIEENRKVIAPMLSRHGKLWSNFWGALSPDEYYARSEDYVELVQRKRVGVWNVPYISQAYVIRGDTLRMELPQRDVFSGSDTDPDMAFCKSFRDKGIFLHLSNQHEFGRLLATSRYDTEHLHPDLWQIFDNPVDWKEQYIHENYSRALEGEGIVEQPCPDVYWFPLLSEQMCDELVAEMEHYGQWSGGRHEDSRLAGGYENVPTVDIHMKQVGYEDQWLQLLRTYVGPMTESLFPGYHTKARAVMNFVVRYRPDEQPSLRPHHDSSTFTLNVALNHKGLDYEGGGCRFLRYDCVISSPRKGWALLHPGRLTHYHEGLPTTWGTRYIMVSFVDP

[1] = compound: Cc1cccc(CC(=O)N2CCc3c2ccc(-c2cn(C)c4ncnc(N)c24)c3F)n1
Procedure, shortened: as §1

nilotinib = compound: Cc1cn(-c2cc(NC(=O)c3ccc(C)c(Nc4nccc(-c5cccnc5)n4)c3)cc(C(F)(F)F)c2)cn1 [nilotinib]
Procedure, shortened: as §1

[2] = compound: Cc1nc(Nc2n[nH]c3c2CN(C(=O)N[C@H](CN(C)C)c2ccccc2)C3(C)C)c2sccc2n1
Procedure, shortened: as §1

dasatinib = compound: Cc1nc(Nc2ncc(C(=O)Nc3c(C)cccc3Cl)s2)cc(N2CCN(CCO)CC2)n1 [dasatinib]
Procedure, shortened: as §1

[3] = compound: Cc1ncc(-c2ccnc(Nc3ccc(S(C)(=O)=O)cc3)n2)n1C(C)C
Procedure, shortened: as §1

[4] = compound: Cn1cc(-c2ccc3c(c2)CCN3C(=O)Cc2cccc(C(F)(F)F)c2)c2c(N)ncnc21
Procedure, shortened: as §1

[5] = compound: Cn1cc(-c2ccc3nnc(C(F)(F)c4ccc5ncccc5c4)n3n2)cn1
Procedure, shortened: as §1

tipifarnib = compound: Cn1cncc1[C@@](N)(c1ccc(Cl)cc1)c1ccc2c(c1)c(-c1cccc(Cl)c1)cc(=O)n2C [tipifarnib]
Procedure, shortened: as §1

mubritinib = compound: FC(F)(F)c1ccc(/C=C/c2nc(COc3ccc(CCCCn4ccnn4)cc3)co2)cc1 [mubritinib]
Procedure, shortened: as §1

Measured: log2 fold change

POLR2G (UniProt P62487)
inactive: bafetinib -0.048 | [1] -0.038 | nilotinib 0.012 | [2] 0.188 | dasatinib 0.054 | [3] 0.202 | [4] 0.009 | [5] 0.002 | tipifarnib 0 | mubritinib 0.065

PPCS (UniProt Q9HAB8)
inactive: bafetinib -0.017 | [1] 0.011 | nilotinib 0.035 | [2] -0.072 | dasatinib -0.065 | [3] -0.003 | [4] 0.019 | [5] 0.057 | tipifarnib -0.001 | mubritinib 0.05

POGLUT3 (UniProt Q7Z4H8)
inactive: bafetinib 0.017 | [1] 0.021 | nilotinib 0.001 | [2] 0.013 | dasatinib 0.004 | [3] -0.054 | [4] -0.023 | [5] -0.008 | tipifarnib 0.047 | mubritinib -0.07

POLR2M (UniProt P0CAP2)
inactive: bafetinib -0.029 | [1] -0.015 | nilotinib -0.011 | [2] 0.034 | dasatinib 0.055 | [3] 0.138 | [4] -0.051 | [5] -0.024 | tipifarnib 0.035 | mubritinib -0.037

POLR2A (UniProt P24928)
active: [3] 0.511
inactive: bafetinib -0.019 | [1] -0.014 | nilotinib -0.039 | [2] 0.24 | dasatinib -0.066 | [4] 0 | [5] -0.037 | tipifarnib 0.004 | mubritinib 0.038

PML (UniProt P29590)
inactive: bafetinib -0.078 | [1] 0.029 | nilotinib -0.035 | [2] -0.046 | dasatinib -0.036 | [3] -0.037 | [4] -0.047 | [5] -0.003 | tipifarnib 0.014 | mubritinib -0.023

POLR2D (UniProt O15514)
inactive: bafetinib 0.009 | [1] -0.076 | nilotinib -0.028 | [2] 0.122 | dasatinib -0.013 | [3] 0.202 | [4] -0.036 | [5] 0.034 | tipifarnib -0.01 | mubritinib 0.052

POSTN (UniProt Q15063)
inactive: bafetinib -0.074 | [1] -0.009 | nilotinib 0.083 | [2] 0.038 | dasatinib -0.031 | [3] 0.189 | [4] 0.23 | [5] 0.028 | tipifarnib 0.019 | mubritinib -0.139

PLIN3 (UniProt O60664)
inactive: bafetinib -0.037 | [1] -0.002 | nilotinib 0.01 | [2] -0.001 | dasatinib -0.015 | [3] -0.008 | [4] 0.022 | [5] 0.008 | tipifarnib -0.059 | mubritinib 0.028

PON2 (UniProt Q15165)
inactive: bafetinib -0.089 | [1] 0.004 | nilotinib 0.002 | [2] 0.023 | dasatinib -0.064 | [3] -0.029 | [4] -0.119 | [5] 0.065 | tipifarnib 0.06 | mubritinib 0.011

PMAIP1 (UniProt Q13794)
inactive: bafetinib -0.24 | [1] -0.122 | nilotinib -0.289 | [2] -0.002 | dasatinib -0.146 | [3] 0.041 | [4] 0.107 | [5] -0.052 | tipifarnib 0.17 | mubritinib 0.071

PPM1A isoform 3 (UniProt P35813)
inactive: bafetinib 0.003 | [1] -0.003 | nilotinib 0.032 | [2] 0.119 | dasatinib -0.072 | [3] -0.015 | [4] 0.011 | [5] 0.051 | tipifarnib -0.058 | mubritinib 0.138

POR (UniProt P16435)
inactive: bafetinib -0.012 | [1] -0.044 | nilotinib 0.004 | [2] -0.029 | dasatinib -0.033 | [3] 0.001 | [4] 0.046 | [5] -0.036 | tipifarnib -0.004 | mubritinib -0.041

PLRG1 (UniProt O43660)
inactive: bafetinib 0.027 | [1] 0.002 | nilotinib 0.006 | [2] -0.03 | dasatinib 0.017 | [3] 0.04 | [4] -0.054 | [5] -0.096 | tipifarnib 0.077 | mubritinib -0.017

PPIL2 (UniProt Q13356)
inactive: bafetinib -0.008 | [1] 0.032 | nilotinib -0.056 | [2] -0.086 | dasatinib -0.127 | [3] 0.068 | [4] 0.03 | [5] 0.046 | tipifarnib -0.142 | mubritinib 0.011

PPIL1 (UniProt Q9Y3C6)
inactive: bafetinib 0.024 | [1] -0.002 | nilotinib -0.029 | [2] 0.046 | dasatinib -0.042 | [3] 0.073 | [4] -0.063 | [5] -0.022 | tipifarnib -0.088 | mubritinib 0.01

PLEKHF2 (UniProt Q9H8W4)
inactive: bafetinib -0.033 | [1] 0.029 | nilotinib -0.118 | [2] -0.066 | dasatinib -0.104 | [3] -0.126 | [4] 0.088 | [5] 0.04 | tipifarnib -0.045 | mubritinib 0.019

POMGNT1 isoform 2 (UniProt Q8WZA1)
inactive: bafetinib -0.027 | [1] -0.097 | nilotinib -0.148 | [2] 0.075 | dasatinib 0.078 | [3] -0.062 | [4] 0.013 | [5] 0.147 | tipifarnib 0.13 | mubritinib 0.206

POGLUT2 (UniProt Q6UW63)
inactive: bafetinib 0.003 | [1] -0.014 | nilotinib -0.001 | [2] 0.05 | dasatinib 0.039 | [3] -0.05 | [4] -0.018 | [5] 0.006 | tipifarnib 0.096 | mubritinib 0.159

Taken from the listing (5 entries):
PPIL2 (UniProt Q13356)
inactive: bafetinib -0.008 | [1] 0.032 | nilotinib -0.056 | [2] -0.086 | dasatinib -0.127 | [3] 0.068 | [4] 0.03 | [5] 0.046 | tipifarnib -0.142 | mubritinib 0.011

PPIL1 (UniProt Q9Y3C6)
inactive: bafetinib 0.024 | [1] -0.002 | nilotinib -0.029 | [2] 0.046 | dasatinib -0.042 | [3] 0.073 | [4] -0.063 | [5] -0.022 | tipifarnib -0.088 | mubritinib 0.01

PLEKHF2 (UniProt Q9H8W4)
inactive: bafetinib -0.033 | [1] 0.029 | nilotinib -0.118 | [2] -0.066 | dasatinib -0.104 | [3] -0.126 | [4] 0.088 | [5] 0.04 | tipifarnib -0.045 | mubritinib 0.019

POMGNT1 isoform 2 (UniProt Q8WZA1)
inactive: bafetinib -0.027 | [1] -0.097 | nilotinib -0.148 | [2] 0.075 | dasatinib 0.078 | [3] -0.062 | [4] 0.013 | [5] 0.147 | tipifarnib 0.13 | mubritinib 0.206

POGLUT2 (UniProt Q6UW63)
inactive: bafetinib 0.003 | [1] -0.014 | nilotinib -0.001 | [2] 0.05 | dasatinib 0.039 | [3] -0.05 | [4] -0.018 | [5] 0.006 | tipifarnib 0.096 | mubritinib 0.159

Continuation.

POLA2 (UniProt Q14181)
inactive: bafetinib -0.038 | [1] 0.058 | nilotinib -0.036 | [2] -0.072 | dasatinib -0.101 | [3] -0.02 | [4] 0.022 | [5] 0.001 | tipifarnib -0.04 | mubritinib 0.041

POLR2E (UniProt P19388)
inactive: bafetinib 0.055 | [1] -0.03 | nilotinib -0.007 | [2] 0.112 | dasatinib 0.025 | [3] 0.306 | [4] -0.056 | [5] 0.005 | tipifarnib -0.088 | mubritinib 0.023

PLXNA1 (UniProt Q9UIW2)
inactive: bafetinib 0.045 | [1] -0.012 | nilotinib -0.055 | [2] 0.027 | dasatinib 0.019 | [3] -0.039 | [4] 0.066 | [5] 0.014 | tipifarnib 0.025 | mubritinib 0.03

POLDIP2 (UniProt Q9Y2S7)
inactive: bafetinib -0.007 | [1] -0.038 | nilotinib -0.02 | [2] -0.047 | dasatinib -0.076 | [3] -0.011 | [4] 0.012 | [5] -0.034 | tipifarnib 0.002 | mubritinib 0.044

PLS3 (UniProt P13797)
inactive: bafetinib -0.025 | [1] -0.002 | nilotinib -0.003 | [2] 0.013 | dasatinib 0.026 | [3] -0.001 | [4] 0.018 | [5] 0.053 | tipifarnib -0.021 | mubritinib 0.019

POTEF (UniProt A5A3E0)
inactive: bafetinib -0.04 | [1] -0.022 | nilotinib 0.014 | [2] -0.029 | dasatinib 0.016 | [3] 0.015 | [4] 0.001 | [5] -0.015 | tipifarnib 0.038 | mubritinib 0.043

POLR2F (UniProt P61218)
inactive: bafetinib 0.149 | [1] -0.152 | nilotinib -0.261 | [2] -0.046 | dasatinib -0.137 | [3] 0.154 | [4] 0.144 | [5] 0.028 | tipifarnib -0.065 | mubritinib 0.011

PNKD isoform 3 (UniProt Q8N490)
inactive: bafetinib -0.124 | [1] -0.007 | nilotinib 0.059 | [2] -0.016 | dasatinib 0.023 | [3] -0.01 | [4] 0.019 | [5] -0.102 | tipifarnib -0.171 | mubritinib 0.052

PPIF (UniProt P30405)
inactive: bafetinib -0.087 | [1] 0.023 | nilotinib -0.033 | [2] 0.046 | dasatinib -0.041 | [3] -0.051 | [4] 0.036 | [5] 0.016 | tipifarnib 0.005 | mubritinib 0.032

PPAT (UniProt Q06203)
inactive: bafetinib -0.025 | [1] -0.021 | nilotinib 0.01 | [2] 0.006 | dasatinib 0.015 | [3] 0.002 | [4] 0.066 | [5] 0.006 | tipifarnib 0.015 | mubritinib 0.026

PLOD3 (UniProt O60568)
inactive: bafetinib 0.095 | [1] -0.029 | nilotinib 0.028 | [2] 0.044 | dasatinib 0.001 | [3] -0.008 | [4] -0.064 | [5] 0.006 | tipifarnib 0.071 | mubritinib -0.057

— the supplement of paper PMC10849652
